Test results reported in the supplement of paper PMC10849652.
Some of the results follow.

Sequences of proteins named here, by UniProt entry; tags and fusion partners are left off. A change or cut given only in a name is not applied to a line headed by its entry.
UniProt Q8NEZ5: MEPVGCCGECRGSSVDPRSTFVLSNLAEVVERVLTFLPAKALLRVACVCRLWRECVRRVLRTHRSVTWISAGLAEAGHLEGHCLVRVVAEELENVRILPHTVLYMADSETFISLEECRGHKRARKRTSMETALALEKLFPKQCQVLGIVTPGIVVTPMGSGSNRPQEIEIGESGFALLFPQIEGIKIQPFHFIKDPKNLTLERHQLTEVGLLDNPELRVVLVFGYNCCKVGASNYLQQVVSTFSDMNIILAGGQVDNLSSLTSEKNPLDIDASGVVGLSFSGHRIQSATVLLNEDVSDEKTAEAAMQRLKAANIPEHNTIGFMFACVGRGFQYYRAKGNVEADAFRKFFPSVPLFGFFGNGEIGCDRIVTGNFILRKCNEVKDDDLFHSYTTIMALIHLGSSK
UniProt O95684: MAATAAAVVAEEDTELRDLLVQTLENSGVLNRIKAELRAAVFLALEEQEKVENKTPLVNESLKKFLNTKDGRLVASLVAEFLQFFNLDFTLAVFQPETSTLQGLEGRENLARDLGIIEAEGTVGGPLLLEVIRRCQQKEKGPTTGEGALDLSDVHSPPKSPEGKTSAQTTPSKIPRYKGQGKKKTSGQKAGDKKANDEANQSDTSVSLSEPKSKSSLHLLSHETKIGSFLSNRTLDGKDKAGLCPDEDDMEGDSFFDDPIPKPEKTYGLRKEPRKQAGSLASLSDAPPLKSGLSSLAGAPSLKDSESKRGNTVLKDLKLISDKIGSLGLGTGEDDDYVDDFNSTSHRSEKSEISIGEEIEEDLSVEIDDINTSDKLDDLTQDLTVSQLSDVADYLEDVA
UniProt Q5HYJ3: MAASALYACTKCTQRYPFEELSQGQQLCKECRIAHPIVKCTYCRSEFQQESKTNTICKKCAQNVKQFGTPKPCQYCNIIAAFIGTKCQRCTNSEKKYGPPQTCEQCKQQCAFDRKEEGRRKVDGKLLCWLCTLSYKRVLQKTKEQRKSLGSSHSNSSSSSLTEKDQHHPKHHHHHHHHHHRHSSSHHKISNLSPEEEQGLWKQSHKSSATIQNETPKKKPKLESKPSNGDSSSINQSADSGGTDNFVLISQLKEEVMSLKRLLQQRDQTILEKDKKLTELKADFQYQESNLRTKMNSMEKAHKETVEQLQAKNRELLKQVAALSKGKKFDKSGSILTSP
UniProt Q14254: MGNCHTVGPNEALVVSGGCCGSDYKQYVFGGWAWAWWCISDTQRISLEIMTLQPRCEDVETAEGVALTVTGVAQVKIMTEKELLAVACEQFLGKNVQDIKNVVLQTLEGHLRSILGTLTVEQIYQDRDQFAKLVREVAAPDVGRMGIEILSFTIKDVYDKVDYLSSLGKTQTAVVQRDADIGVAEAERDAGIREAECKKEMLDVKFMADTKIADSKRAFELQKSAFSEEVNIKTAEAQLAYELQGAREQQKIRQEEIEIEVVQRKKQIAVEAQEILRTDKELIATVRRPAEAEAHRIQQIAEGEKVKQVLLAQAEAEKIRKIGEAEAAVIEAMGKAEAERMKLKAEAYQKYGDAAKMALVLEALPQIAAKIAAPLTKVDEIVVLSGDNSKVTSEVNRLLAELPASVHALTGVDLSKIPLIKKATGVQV
UniProt Q52LJ0: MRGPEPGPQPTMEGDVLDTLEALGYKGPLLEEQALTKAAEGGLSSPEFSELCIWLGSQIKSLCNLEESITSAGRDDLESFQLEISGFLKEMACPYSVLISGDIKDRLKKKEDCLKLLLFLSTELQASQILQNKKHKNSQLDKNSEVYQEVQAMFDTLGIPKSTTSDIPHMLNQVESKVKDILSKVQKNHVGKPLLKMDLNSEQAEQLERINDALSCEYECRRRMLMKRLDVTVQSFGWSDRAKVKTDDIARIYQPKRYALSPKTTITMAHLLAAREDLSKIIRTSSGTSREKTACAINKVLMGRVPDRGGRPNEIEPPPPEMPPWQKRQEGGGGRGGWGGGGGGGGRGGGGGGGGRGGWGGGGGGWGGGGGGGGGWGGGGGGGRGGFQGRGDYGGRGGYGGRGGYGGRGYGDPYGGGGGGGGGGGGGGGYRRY
UniProt Q13045: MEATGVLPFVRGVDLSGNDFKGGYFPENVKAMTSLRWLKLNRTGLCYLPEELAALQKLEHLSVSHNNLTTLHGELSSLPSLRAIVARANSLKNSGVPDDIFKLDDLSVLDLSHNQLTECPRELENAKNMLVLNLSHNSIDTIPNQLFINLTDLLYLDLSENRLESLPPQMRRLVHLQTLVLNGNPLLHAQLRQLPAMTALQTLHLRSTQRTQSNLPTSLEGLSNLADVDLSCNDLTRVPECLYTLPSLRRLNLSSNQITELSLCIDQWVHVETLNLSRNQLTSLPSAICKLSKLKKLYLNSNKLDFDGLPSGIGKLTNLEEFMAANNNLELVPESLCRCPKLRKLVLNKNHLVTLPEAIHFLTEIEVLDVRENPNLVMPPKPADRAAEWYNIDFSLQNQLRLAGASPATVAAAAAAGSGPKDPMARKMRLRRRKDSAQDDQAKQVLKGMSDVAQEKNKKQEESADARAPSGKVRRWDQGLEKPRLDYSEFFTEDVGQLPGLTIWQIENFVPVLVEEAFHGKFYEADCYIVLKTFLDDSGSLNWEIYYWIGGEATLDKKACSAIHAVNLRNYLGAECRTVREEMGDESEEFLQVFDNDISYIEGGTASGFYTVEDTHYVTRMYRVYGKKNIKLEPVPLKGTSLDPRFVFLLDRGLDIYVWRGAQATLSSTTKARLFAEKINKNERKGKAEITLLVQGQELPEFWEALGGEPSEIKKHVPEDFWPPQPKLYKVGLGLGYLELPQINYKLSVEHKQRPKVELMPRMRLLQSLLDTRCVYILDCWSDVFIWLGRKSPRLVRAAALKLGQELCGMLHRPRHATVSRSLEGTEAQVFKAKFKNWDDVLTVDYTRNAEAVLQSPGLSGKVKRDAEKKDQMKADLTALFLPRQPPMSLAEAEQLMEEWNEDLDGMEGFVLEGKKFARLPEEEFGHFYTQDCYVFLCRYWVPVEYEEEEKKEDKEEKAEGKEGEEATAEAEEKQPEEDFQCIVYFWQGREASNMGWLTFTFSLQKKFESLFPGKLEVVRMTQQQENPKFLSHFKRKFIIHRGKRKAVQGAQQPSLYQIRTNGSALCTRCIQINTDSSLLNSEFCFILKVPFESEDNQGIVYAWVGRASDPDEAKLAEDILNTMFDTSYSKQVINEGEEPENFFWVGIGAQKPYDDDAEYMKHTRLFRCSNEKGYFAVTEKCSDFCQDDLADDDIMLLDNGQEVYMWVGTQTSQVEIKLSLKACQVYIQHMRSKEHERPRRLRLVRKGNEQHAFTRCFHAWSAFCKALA
UniProt Q13451: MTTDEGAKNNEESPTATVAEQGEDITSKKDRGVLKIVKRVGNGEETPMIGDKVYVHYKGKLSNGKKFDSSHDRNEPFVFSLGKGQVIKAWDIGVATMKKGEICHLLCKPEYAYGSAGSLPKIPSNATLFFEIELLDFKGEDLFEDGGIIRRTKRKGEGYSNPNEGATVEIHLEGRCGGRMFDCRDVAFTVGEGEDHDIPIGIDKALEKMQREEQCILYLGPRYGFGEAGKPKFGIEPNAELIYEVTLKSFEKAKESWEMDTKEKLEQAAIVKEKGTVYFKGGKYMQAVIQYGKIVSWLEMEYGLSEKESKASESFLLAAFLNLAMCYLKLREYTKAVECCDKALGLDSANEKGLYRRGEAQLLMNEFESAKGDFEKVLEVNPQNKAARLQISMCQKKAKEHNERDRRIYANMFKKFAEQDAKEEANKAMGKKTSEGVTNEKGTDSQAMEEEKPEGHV
UniProt Q96ND0: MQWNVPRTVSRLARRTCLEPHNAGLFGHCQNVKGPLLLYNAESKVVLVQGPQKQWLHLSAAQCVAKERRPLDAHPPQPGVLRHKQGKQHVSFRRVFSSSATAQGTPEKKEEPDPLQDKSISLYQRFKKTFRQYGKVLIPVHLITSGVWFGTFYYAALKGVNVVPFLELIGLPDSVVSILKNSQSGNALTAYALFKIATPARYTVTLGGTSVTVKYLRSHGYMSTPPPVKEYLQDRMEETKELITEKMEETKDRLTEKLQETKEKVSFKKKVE
UniProt Q9Y421: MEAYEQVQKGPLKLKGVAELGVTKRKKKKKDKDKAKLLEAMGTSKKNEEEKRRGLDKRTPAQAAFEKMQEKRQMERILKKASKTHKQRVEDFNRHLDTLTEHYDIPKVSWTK
UniProt Q8WVX9: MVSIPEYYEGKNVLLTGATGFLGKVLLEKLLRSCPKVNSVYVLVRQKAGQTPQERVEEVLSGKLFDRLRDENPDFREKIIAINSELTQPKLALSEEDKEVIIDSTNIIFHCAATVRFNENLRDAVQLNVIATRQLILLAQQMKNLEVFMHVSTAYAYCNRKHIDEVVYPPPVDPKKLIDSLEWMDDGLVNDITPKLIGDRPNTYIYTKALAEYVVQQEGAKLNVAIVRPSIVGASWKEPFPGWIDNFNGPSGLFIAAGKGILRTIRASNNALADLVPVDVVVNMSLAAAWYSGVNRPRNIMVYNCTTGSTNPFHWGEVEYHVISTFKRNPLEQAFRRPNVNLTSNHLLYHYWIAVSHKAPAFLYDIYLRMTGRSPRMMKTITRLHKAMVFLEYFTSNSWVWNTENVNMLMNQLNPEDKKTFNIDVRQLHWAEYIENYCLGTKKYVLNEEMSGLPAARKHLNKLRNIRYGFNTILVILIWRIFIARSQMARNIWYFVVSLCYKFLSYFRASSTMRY
UniProt Q8TB52: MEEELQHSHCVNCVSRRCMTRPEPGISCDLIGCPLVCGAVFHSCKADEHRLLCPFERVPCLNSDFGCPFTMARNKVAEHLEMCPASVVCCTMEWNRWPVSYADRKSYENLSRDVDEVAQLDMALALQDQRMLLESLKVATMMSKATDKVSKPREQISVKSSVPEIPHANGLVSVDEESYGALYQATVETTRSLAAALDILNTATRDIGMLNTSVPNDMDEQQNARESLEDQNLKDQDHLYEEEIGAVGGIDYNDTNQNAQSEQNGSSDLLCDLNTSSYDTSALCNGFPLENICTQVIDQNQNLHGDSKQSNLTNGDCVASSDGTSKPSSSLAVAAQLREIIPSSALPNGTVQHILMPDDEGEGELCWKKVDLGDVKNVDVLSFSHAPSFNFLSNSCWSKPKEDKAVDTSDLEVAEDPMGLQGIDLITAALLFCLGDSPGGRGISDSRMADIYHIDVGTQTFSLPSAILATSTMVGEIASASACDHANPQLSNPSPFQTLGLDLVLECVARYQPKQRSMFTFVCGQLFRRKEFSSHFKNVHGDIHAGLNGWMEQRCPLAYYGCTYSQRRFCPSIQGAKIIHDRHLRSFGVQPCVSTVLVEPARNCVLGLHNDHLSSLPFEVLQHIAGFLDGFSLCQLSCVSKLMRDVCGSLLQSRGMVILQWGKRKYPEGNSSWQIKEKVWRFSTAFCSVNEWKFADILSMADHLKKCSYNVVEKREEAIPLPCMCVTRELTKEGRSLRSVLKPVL
UniProt Q5T1M5: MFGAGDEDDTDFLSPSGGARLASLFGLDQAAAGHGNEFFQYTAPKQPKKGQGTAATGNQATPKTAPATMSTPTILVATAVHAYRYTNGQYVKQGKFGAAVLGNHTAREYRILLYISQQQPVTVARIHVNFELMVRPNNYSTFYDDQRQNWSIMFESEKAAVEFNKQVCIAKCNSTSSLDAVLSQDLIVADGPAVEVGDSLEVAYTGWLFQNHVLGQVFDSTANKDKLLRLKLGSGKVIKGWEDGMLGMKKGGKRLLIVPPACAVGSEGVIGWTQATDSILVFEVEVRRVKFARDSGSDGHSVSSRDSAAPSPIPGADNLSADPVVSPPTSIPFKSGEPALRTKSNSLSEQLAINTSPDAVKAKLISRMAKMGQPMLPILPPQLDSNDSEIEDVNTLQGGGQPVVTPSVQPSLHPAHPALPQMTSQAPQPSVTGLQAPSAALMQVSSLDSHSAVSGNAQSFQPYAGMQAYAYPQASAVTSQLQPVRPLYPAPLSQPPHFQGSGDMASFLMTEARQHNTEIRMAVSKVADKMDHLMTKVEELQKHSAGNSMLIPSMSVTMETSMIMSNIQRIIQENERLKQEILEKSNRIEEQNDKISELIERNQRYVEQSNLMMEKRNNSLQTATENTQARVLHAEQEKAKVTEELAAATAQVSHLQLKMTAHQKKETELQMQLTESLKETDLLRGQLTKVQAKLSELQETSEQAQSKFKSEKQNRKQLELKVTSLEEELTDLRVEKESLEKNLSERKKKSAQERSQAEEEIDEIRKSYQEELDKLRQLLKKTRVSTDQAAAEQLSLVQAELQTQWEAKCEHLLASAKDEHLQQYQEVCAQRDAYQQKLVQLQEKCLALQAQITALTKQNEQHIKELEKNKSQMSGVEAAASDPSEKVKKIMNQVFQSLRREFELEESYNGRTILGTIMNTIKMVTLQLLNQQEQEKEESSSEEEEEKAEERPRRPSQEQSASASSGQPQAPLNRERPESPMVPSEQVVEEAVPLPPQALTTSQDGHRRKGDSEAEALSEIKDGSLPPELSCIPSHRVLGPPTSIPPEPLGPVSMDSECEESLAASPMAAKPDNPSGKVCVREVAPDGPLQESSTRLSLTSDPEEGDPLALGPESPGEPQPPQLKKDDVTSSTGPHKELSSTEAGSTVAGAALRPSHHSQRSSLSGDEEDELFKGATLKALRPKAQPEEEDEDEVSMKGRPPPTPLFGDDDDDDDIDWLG

compound: C[C@H](Nc1ncnc2nc[nH]c12)c1cc2cccc(Cl)c2c(=O)n1-c1ccccc1 [duvelisib]; assay: log2 fold change, soluble protein after heating vs DMSO (PISA); higher = thermal stabilisation; K562 cells, 10 uM, 30 min; active = over 0.2 and 3.5 SD of the protein, either way, in both replicates (recomputed)
Procedure, shortened: (§1)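 Quantification of soluble protein used TMTpro 16plex LC-MS/MS, with channel sums equalised. Samples were the supernatant after 21,000xg for 90 min of pooled aliquots from K562 cells (2×10^6 cells/mL) treated with 10 μM compound for 30 min, heated for 3 min over 48°C-58°C, and extracted in PBS with 0.5% NP-40 at 4°C. Values, from duplicates, describe thermal stability against control samples on a log2 fold-change scale.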

log2 fold change, inactive:
FBXO22 (UniProt Q8NEZ5) 0.047, FNBP4 isoform 2 (UniProt Q8N3X1) -0.007, FGFR1OP (UniProt O95684) -0.006, FCSK isoform 2 (UniProt Q8N0W3) -0.002, FAM76B (UniProt Q5HYJ3) -0.073, FLVCR1 (UniProt Q9Y5Y0) 0.097, FAM98A (UniProt Q8NCA5) -0.128, FERMT2 isoform 3 (UniProt Q96AC1) 0.115, FN3K (UniProt Q9H479) 0.042, FEM1B (UniProt Q9UK73) 0.076, FN1 isoform 1 (UniProt P02751) 0.02, FN3KRP (UniProt Q9HA64) 0.028, FIP1L1 (UniProt Q6UN15) -0.052, FLYWCH2 (UniProt Q96CP2) 0.03, FDX1 (UniProt P10109) 0.049, FLOT2 (UniProt Q14254) -0.064, FAM98B (UniProt Q52LJ0) 0.029, FLOT1 (UniProt O75955) -0.09, FBXO5 (UniProt Q9UKT4) 0.021, FLT4 (UniProt P35916) 0.087, FLAD1 (UniProt Q8NFF5) 0.136, FLII (UniProt Q13045) 0.027, FLNB isoform 8 (UniProt O75369) 0.006, FLNC (UniProt Q14315) 0, FCGR2C (UniProt P31995) 0.074, FKBP5 (UniProt Q13451) -0.007, FKBP2 (UniProt P26885) 0.058, FHL2 (UniProt Q14192) -0.026, FAM210A (UniProt Q96ND0) 0.057, FAM32A (UniProt Q9Y421) -0.056, FARSB (UniProt Q9NSD9) 0.016, FAM78A (UniProt Q5JUQ0) 0.04, FKBP9 (UniProt O95302) -0.005, FAR1 (UniProt Q8WVX9) 0.061, FBXO30 (UniProt Q8TB52) 0.014, FKBP15 (UniProt Q5T1M5) -0.046, FBLN1 (UniProt P23142) -0.111

compound: Cc1cc(Nc2cc(CN3CCOCC3)c3nc(C)c(Cc4ccc(Cl)cc4F)n3n2)n[nH]1 [gandotinib]; assay: as above
Procedure, shortened: as §1

log2 fold change, inactive:
FBXO22 (UniProt Q8NEZ5) -0.071, FNBP4 isoform 2 (UniProt Q8N3X1) -0.014, FGFR1OP (UniProt O95684) -0.115, FCSK isoform 2 (UniProt Q8N0W3) 0.028, FAM76B (UniProt Q5HYJ3) -0.237, FLVCR1 (UniProt Q9Y5Y0) 0.013, FAM98A (UniProt Q8NCA5) 0.088, FERMT2 isoform 3 (UniProt Q96AC1) 0.308, FN3K (UniProt Q9H479) 0, FEM1B (UniProt Q9UK73) 0.023, FN1 isoform 1 (UniProt P02751) -0.213, FN3KRP (UniProt Q9HA64) 0.048, FIP1L1 (UniProt Q6UN15) 0.051, FLYWCH2 (UniProt Q96CP2) -0.133, FDX1 (UniProt P10109) 0.093, FLOT2 (UniProt Q14254) 0.06, FAM98B (UniProt Q52LJ0) 0.01, FLOT1 (UniProt O75955) 0.157, FBXO5 (UniProt Q9UKT4) -0.011, FLT4 (UniProt P35916) -0.001, FLAD1 (UniProt Q8NFF5) 0.171, FLII (UniProt Q13045) -0.022, FLNB isoform 8 (UniProt O75369) -0.03, FLNC (UniProt Q14315) -0.049, FCGR2C (UniProt P31995) 0, FKBP5 (UniProt Q13451) -0.073, FKBP2 (UniProt P26885) 0.018, FHL2 (UniProt Q14192) 0.015, FAM210A (UniProt Q96ND0) 0.004, FAM32A (UniProt Q9Y421) -0.023, FARSB (UniProt Q9NSD9) -0.01, FAM78A (UniProt Q5JUQ0) -0.211, FKBP9 (UniProt O95302) 0.096, FAR1 (UniProt Q8WVX9) -0.028, FBXO30 (UniProt Q8TB52) -0.037, FKBP15 (UniProt Q5T1M5) -0.018, FBLN1 (UniProt P23142) -0.065
